The source of these data is patent US20260234236A1 (INTERVET, published 2026).

Results are given in words; binding and its absence hold for the method and conditions named. Some binding calls cover weakened binding; strength is not graded here.

The target of the assay is T1, canine IL-13 receptor alpha 2 (cIL-13R alpha 2) (canine) (UniProt Q95LF0).
T1 sequence: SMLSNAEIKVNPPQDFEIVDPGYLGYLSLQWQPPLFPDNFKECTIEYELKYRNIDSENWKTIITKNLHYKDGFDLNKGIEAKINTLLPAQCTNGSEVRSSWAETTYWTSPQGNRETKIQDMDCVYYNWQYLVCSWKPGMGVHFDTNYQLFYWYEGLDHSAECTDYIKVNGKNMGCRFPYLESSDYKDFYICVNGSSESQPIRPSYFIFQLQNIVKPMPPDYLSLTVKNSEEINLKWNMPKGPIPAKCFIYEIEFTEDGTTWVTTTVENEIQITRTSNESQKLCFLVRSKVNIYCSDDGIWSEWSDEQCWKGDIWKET
Kind of assay: summary of the examples; assay not described.

B1: Recombinant canine IL-13 (R&D Systems, Catalog: 5894-CL/CF) (ligand, UniProt Q9N0W9 19-131, looked up)
chain: SPSPVTPSPTLKELIEELVNITQNQASLCNGSMVWSVNLTAGMYCAALESLINVSDCSAIQRTQRMLKALCSQKPAAGQISSERSRDTKIEVIQLVKNLLTYVRGVYRHGNFR
For the molecule B1, the binding entry was “binds”.
